The other results are listed elsewhere or left out. These are further read-outs of the screen, such as a control signal, another cell line or another target. No call is given for them. Compounds called inactive in the main read-out are mostly missing here. Potencies come from curve fits of mixed quality, noted in brackets.
Assay: qHTS Assay for Lipid Storage Modulators in Drosophila S3 Cells;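 for cell number change: cells counted by Cell Tracker Red CMTPX staining in the red channel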
Settings: BODIPY lipid droplet fluorescence, 18-24 h; for cell number change: measured here: cell count max response, cells fed with added oleic acid
Method in brief: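 Drosophila S3 cells loaded with oleic acid (400 uM, as added) and compounds at several concentrations; lipid droplets imaged by 488-nm laser-scanning cytometry, 500–530 nm intensity and object ratio to cell channel. Percent activity normalized to 20 uM Triacsin C.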

[1] = measured here: lipid fluorescence (Fed channel) AC50, cells fed with added oleic acid
[2] = measured here: cell number channel AC50, cells fed with added oleic acid

Question: What does the source list for `O=C(c1cc2ccccc2o1)N1CCN(c2ccccc2Cl)CC1`?
Answer: cell number change: 2.59%; AC50 [1]: 0.92 µM [rising, full curve, poor fit]

Question: With `CN1CCN(CCCCOc2ccccc2-c2ccccc2)CC1` as the compound, how does the cell number change read?
Answer: The cell number change was 12.3%.

Question: What about the AC50 [2] of the same compound?
Answer: Its AC50 is 3.66 µM [falling, single point].

Question: What about the AC50 [1] of the same compound?
Answer: Its AC50 is 6.51 µM [falling, single point].

Question: For `COc1ccc(Nc2nc(-c3sc(C)nc3C)cs2)c(OC)c1`, which cell number change is on record?
Answer: Its cell number change is -46.8%.

Question: And the AC50 [2]?
Answer: The AC50 was 8.2 µM [falling, partial curve, poor fit].

Question: Which cell number change does the source give for `O=C(NNC(=O)c1cccc(S(=O)(=O)N2CCc3ccccc32)c1)c1ccccc1` here?
Answer: Its cell number change is 4.64%.

Question: What does the source list for `O=C(CSc1ncccn1)NC1CCS(=O)(=O)C1` (configuration not stated)?
Answer: cell number change: 47.4%; AC50 [2]: 6.51 µM [rising, full curve, poor fit]; AC50 [1]: 6.51 µM [rising, single point]

Question: For `Cc1ccc(C)c(NC(=O)Cn2nc([N+](=O)[O-])c(Br)c2C)c1`, which cell number change is on record?
Answer: The cell number change was -7.44%.

Question: And the AC50 [2]?
Answer: Its AC50 is 0.00461 µM [falling, full curve, poor fit].

Question: And the AC50 [1]?
Answer: The AC50 was 0.82 µM [falling, single point].

Question: With `Cc1ccsc1CN(C)C(=O)C(NC(=O)c1cccc(S(=O)(=O)N2CCOCC2)c1)C(C)C` (configuration not stated) as the compound, how does the cell number change read?
Answer: Its cell number change is -13.5%.

Question: And the AC50 [1]?
Answer: Its AC50 is 7.31 µM [falling, partial curve].

Question: For `CN(C)CCCOC(=O)Cc1ccc(Cl)cc1`, which cell number change is on record?
Answer: Its cell number change is -66.1%.

Question: What about the AC50 [2] of the same compound?
Answer: Its AC50 is 0.116 µM [falling, full curve].

Question: For `COc1ccccc1NC(=O)c1c(C)cc(=O)oc1C`, which cell number change is on record?
Answer: Its cell number change is 2.86%.

Question: What about the AC50 [1] of the same compound?
Answer: The AC50 was 0.731 µM [rising, full curve].

Question: With `COC(=O)c1c(C)[nH]c(C(=O)OCC(=O)N(CC(C)C)c2c(N)n(Cc3ccccc3)c(=O)[nH]c2=O)c1C` as the compound, how does the AC50 [2] read?
Answer: Its AC50 is 6.51 µM [rising, single point].

Question: Which cell number change does the source give for `CCOc1ccc(-c2c(C#N)c(N)nc3sc(C(=O)c4ccccc4)c(N)c23)cc1` here?
Answer: The cell number change was 12.1%.

Question: And the AC50 [1]?
Answer: The AC50 was 0.058 µM [rising, full curve, poor fit].

Question: Which cell number change does the source give for `CC1(C)CC(=O)C(Br)=C(O)C1` here?
Answer: The cell number change was -46%.

Question: And the AC50 [2]?
Answer: The AC50 was 3.55 µM [falling, partial curve].

Question: And the AC50 [1]?
Answer: Its AC50 is 35.5 µM [falling, single point].

Question: Which cell number change does the source give for `CN1CCSc2ccc(C(=O)NCc3cccc(Br)c3)cc21` here?
Answer: Its cell number change is 17.9%.

Question: With `Cc1ccnc2nc(C(=O)OCC(=O)N(CC(C)C)CC(C)C)nn12` as the compound, how does the cell number change read?
Answer: The cell number change was -47.5%.

Question: What about the AC50 [2] of the same compound?
Answer: The AC50 was 1.03 µM [falling, full curve].

Question: And the AC50 [1]?
Answer: Its AC50 is 0.231 µM [falling, full curve].

Question: With `COc1cccc(/C=C2\CCCCC2=O)c1` as the compound, how does the cell number change read?
Answer: Its cell number change is 6.35%.

Question: And the AC50 [1]?
Answer: Its AC50 is 29.1 µM [rising, single point].

Question: Which results are given for `COCCCN(C(=O)C(C)Oc1ccc(Br)cc1)c1c(N)n(Cc2ccccc2)c(=O)[nH]c1=O` (configuration not stated)?
Answer: cell number change: 52.2%; AC50 [2]: 29.1 µM [rising, single point]

Question: Which results are given for `O=C1CSC(c2ccccc2)N1c1ccc(F)cc1F` (configuration not stated)?
Answer: cell number change: 3.52%; AC50 [1]: 4.11 µM [rising, single point]

Question: For `CCOC(=O)N1CCN(CC(=O)Nc2ccc(OC)cc2)CC1`, which cell number change is on record?
Answer: The cell number change was -35.1%.

Question: What about the AC50 [2] of the same compound?
Answer: The AC50 was 0.651 µM [falling, full curve].

Question: And the AC50 [1]?
Answer: The AC50 was 0.00461 µM [falling, full curve, poor fit].

Question: With `Cc1ccc(C(=O)NCC(=O)OCn2nnc3ccccc3c2=O)cc1` as the compound, how does the cell number change read?
Answer: Its cell number change is 7.13%.

Question: And the AC50 [1]?
Answer: The AC50 was 6.51 µM [rising, single point].

Question: Which cell number change does the source give for `CNC(=O)C1CCN(S(=O)(=O)c2c(C)noc2/C=C/c2ccc(C)cc2)CC1` here?
Answer: Its cell number change is 21.6%.

Question: With `Oc1cccc(-n2nnnc2SCc2ccccc2F)c1` as the compound, how does the cell number change read?
Answer: Its cell number change is -23.7%.

Question: And the AC50 [1]?
Answer: Its AC50 is 32.6 µM [falling, single point].

Question: For `CSCC[C@H](NS(=O)(=O)c1ccc(C)cc1)C(=O)N1CCC(C(=O)N[C@@H](Cc2ccccc2)C(=O)O)CC1`, which cell number change is on record?
Answer: Its cell number change is 4.21%.

Question: And the AC50 [1]?
Answer: Its AC50 is 5.17 µM [rising, full curve].

Question: With `CC1=NN(C(N)=S)C(=O)C1N=Nc1ccccc1` (configuration not stated) as the compound, how does the cell number change read?
Answer: The cell number change was 17.5%.

Question: And the AC50 [2]?
Answer: Its AC50 is 0.0411 µM [rising, full curve, poor fit].

Question: What about the AC50 [1] of the same compound?
Answer: The AC50 was 0.517 µM [rising, partial curve, poor fit].

Question: With `COc1ccc(-c2nnn(CC#N)n2)cc1OC` as the compound, how does the cell number change read?
Answer: Its cell number change is 53.3%.

Question: What about the AC50 [2] of the same compound?
Answer: The AC50 was 13 µM [rising, partial curve, poor fit].

Question: What does the source list for `Nc1nnc(SCC(=O)Nc2sc3c(c2C(=O)c2ccccc2)CCCC3)s1`?
Answer: cell number change: 1.23%; AC50 [1]: 29.1 µM [falling, single point]

Question: Which cell number change does the source give for `N#Cc1c(-c2ccccc2)cc(-c2ccccc2)[nH]c1=O` here?
Answer: Its cell number change is 23.5%.

Question: With `Cn1cccc1C1Nc2ccccc2NC2=C1C(=O)CC(C)(C)C2` (configuration not stated) as the compound, how does the cell number change read?
Answer: Its cell number change is 21.5%.

Question: What about the AC50 [1] of the same compound?
Answer: Its AC50 is 0.146 µM [falling, full curve].

Question: Which cell number change does the source give for `CC(C)CN(CC(C)C)S(=O)(=O)N1CCC(C(=O)NCCc2ccc(Cl)cc2)CC1` here?
Answer: The cell number change was -3.6%.

Question: What about the AC50 [2] of the same compound?
Answer: Its AC50 is 5.17 µM [rising, single point].

Question: For `COc1cc(/C=N/NC(=O)c2nonc2C)ccc1O`, which cell number change is on record?
Answer: The cell number change was -9.19%.

Question: What about the AC50 [1] of the same compound?
Answer: The AC50 was 1.16 µM [falling, partial curve, poor fit].

Question: For `CCOc1ccc2[nH]c3c(NCCOC)ncnc3c2c1`, which cell number change is on record?
Answer: Its cell number change is -23.4%.

Question: With `Cc1nc2cc(NC(=O)N3c4ccccc4CC3C)ccc2n1C` (configuration not stated) as the compound, how does the cell number change read?
Answer: The cell number change was -6.41%.

Question: What about the AC50 [1] of the same compound?
Answer: Its AC50 is 1.3 µM [rising, partial curve].

Question: Which results are given for `Cc1cc(=O)oc2c3c(cc(OCC(=O)Nc4ccc(CCO)cc4)c12)OC(C)(C)CC3`?
Answer: cell number change: 1.36%; AC50 [1]: 5.17 µM [falling, full curve]

Question: For `O=C(N/N=C/c1ccc(Br)o1)c1ccc2c(c1)OCCO2`, which cell number change is on record?
Answer: Its cell number change is 25.6%.

Question: What about the AC50 [1] of the same compound?
Answer: Its AC50 is 29.1 µM [rising, single point].

Question: Which cell number change does the source give for `NC(=O)c1ccsc1NC(=O)COC(=O)c1ccccc1F` here?
Answer: Its cell number change is 21.2%.

Question: What about the AC50 [1] of the same compound?
Answer: The AC50 was 6.51 µM [rising, single point].

Question: Which cell number change does the source give for `Oc1ccc(Cl)cc1C=Nc1ccc2c3c(cccc13)CC2` here?
Answer: The cell number change was 1.92%.

Question: What about the AC50 [2] of the same compound?
Answer: Its AC50 is 1.46 µM [falling, partial curve].

Question: With `C[C@@H]1C[C@H](Nc2ccccc2)c2ccccc2N1C(=O)c1cccnc1` as the compound, how does the AC50 [2] read?
Answer: Its AC50 is 0.58 µM [rising, single point].

Question: What about the AC50 [1] of the same compound?
Answer: The AC50 was 0.58 µM [rising, single point].

Question: For `O=C1C=C(c2ccc(O)cc2)C[C@@H](c2ccc3c(c2)OCO3)C1`, which cell number change is on record?
Answer: The cell number change was -13.2%.

Question: And the AC50 [1]?
Answer: The AC50 was 1.16 µM [rising, single point].

Question: Which results are given for `O=C(O)c1ccccc1CSc1ncccc1C(=O)O`?
Answer: cell number change: -32%; AC50 [2]: 11.6 µM [falling, partial curve]

Reference: PubChem BioAssay AID2685 (National Center for Advancing Translational Sciences (NCATS), 2010)
